{"source": "PubChem BioAssay AID504784 (Drosophila RNAi Screening Center, 2011)", "aim": "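Genome-wide knock-down for genes giving too much or too little stored lipid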 (primary screen)", "cell system": "Drosophila Kc167 embryonic cells", "knock-down reagent": "long dsRNA against Drosophila genes, about 250 ng dsRNA per well", "time to read-out": "4 days", "challenge": "cells fed 400 µM oleic acid bound to BSA", "read-out": "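Microscope images give a droplet-to-nucleus area ratio, taken as log and converted to a screen-wide B-score; higher values mean greater lipid storage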", "reading the numbers": "droplet/nuclear area B-score: higher = more stored lipid (overstorage)", "note": "The deposit covers about 17,000 reagents; this is an unselected part of those that have a named target and a result. 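Each column is one replicate's B-score; the combined score over replicates was not deposited, so single values may mislead.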 A plus sign joins genes that one reagent is predicted to hit."}
{"gene": "neo (GeneID 43523)", "dsRNA": "DRSC16316", "droplet/nuclear area B-score, replicate 1": -0.324}
{"gene": "alphaTub85E (GeneID 41183)", "dsRNA": "DRSC16899", "droplet/nuclear area B-score, replicate 1": 1.33, "droplet/nuclear area B-score, replicate 2": 1.18}
{"gene": "CG31819 (GeneID 260658)", "dsRNA": "DRSC01532", "droplet/nuclear area B-score, replicate 1": 0.402, "droplet/nuclear area B-score, replicate 2": 0.727}
{"gene": "Cep164 (GeneID 32563)", "dsRNA": "DRSC20163", "droplet/nuclear area B-score, replicate 1": -0.0762, "droplet/nuclear area B-score, replicate 2": -0.319}
{"gene": "PIP5K59B (GeneID 37633)", "dsRNA": "DRSC04290", "droplet/nuclear area B-score, replicate 1": 1.56, "droplet/nuclear area B-score, replicate 2": 0.597}
{"gene": "PIP5K59B (GeneID 37633)", "dsRNA": "DRSC04403", "droplet/nuclear area B-score, replicate 1": -0.72, "droplet/nuclear area B-score, replicate 2": 0.183}
{"gene": "CheA7a (GeneID 31672)", "dsRNA": "DRSC17965", "droplet/nuclear area B-score, replicate 1": 0.64, "droplet/nuclear area B-score, replicate 2": 1.6}
{"gene": "CG14151 (GeneID 39201)", "dsRNA": "DRSC10153", "droplet/nuclear area B-score, replicate 1": 0.0251, "droplet/nuclear area B-score, replicate 2": -0.461}
{"gene": "CG12477 (GeneID 40040)", "dsRNA": "DRSC09886", "droplet/nuclear area B-score, replicate 1": 2, "droplet/nuclear area B-score, replicate 2": 1.88}
{"gene": "Obp51a (GeneID 246666)", "dsRNA": "DRSC22412", "droplet/nuclear area B-score, replicate 1": -0.0303, "droplet/nuclear area B-score, replicate 2": -0.601}
{"gene": "Pif1A + Pif1B", "dsRNA": "DRSC14142", "droplet/nuclear area B-score, replicate 1": -1.39, "droplet/nuclear area B-score, replicate 2": 0.411}
{"gene": "Pif1A + Pif1B", "dsRNA": "DRSC14380", "droplet/nuclear area B-score, replicate 2": -0.407}
{"gene": "Pif1A + Pif1B", "dsRNA": "DRSC14381", "droplet/nuclear area B-score, replicate 1": 0.629, "droplet/nuclear area B-score, replicate 2": -0.284}
{"gene": "muc (GeneID 34021)", "dsRNA": "DRSC02832", "droplet/nuclear area B-score, replicate 1": 0.508, "droplet/nuclear area B-score, replicate 2": -2.2}
{"gene": "muc (GeneID 34021)", "dsRNA": "DRSC21940", "droplet/nuclear area B-score, replicate 1": -1.35, "droplet/nuclear area B-score, replicate 2": 1.38}
{"gene": "CG4752 (GeneID 37569)", "dsRNA": "DRSC04486", "droplet/nuclear area B-score, replicate 1": -0.332, "droplet/nuclear area B-score, replicate 2": -1.27}
{"gene": "GluRIA (GeneID 38742)", "dsRNA": "DRSC11176", "droplet/nuclear area B-score, replicate 1": 0.787, "droplet/nuclear area B-score, replicate 2": 0.466}
{"gene": "Cpr49Ac (GeneID 36348)", "dsRNA": "DRSC07199", "droplet/nuclear area B-score, replicate 1": -1.02, "droplet/nuclear area B-score, replicate 2": 1.07}
{"gene": "CG32050 (retired record) (GeneID 39154)", "dsRNA": "DRSC10173", "droplet/nuclear area B-score, replicate 1": 2.6, "droplet/nuclear area B-score, replicate 2": 2.01}
{"gene": "Hr38 (GeneID 35332)", "dsRNA": "DRSC03345", "droplet/nuclear area B-score, replicate 2": 0.345}
{"gene": "Hr38 (GeneID 35332)", "dsRNA": "DRSC23230", "droplet/nuclear area B-score, replicate 1": -0.0451, "droplet/nuclear area B-score, replicate 2": -0.393}
{"gene": "hob (GeneID 38395)", "dsRNA": "DRSC08426", "droplet/nuclear area B-score, replicate 1": 0.837, "droplet/nuclear area B-score, replicate 2": 0.723}
{"gene": "CG31802 (GeneID 318949)", "dsRNA": "DRSC02459", "droplet/nuclear area B-score, replicate 1": 0.107, "droplet/nuclear area B-score, replicate 2": 0.402}
{"gene": "Osi4 (GeneID 40758)", "dsRNA": "DRSC12134", "droplet/nuclear area B-score, replicate 1": -0.65, "droplet/nuclear area B-score, replicate 2": 0.0354}
{"gene": "CG3632 (GeneID 32589)", "dsRNA": "DRSC19871", "droplet/nuclear area B-score, replicate 1": 1.13, "droplet/nuclear area B-score, replicate 2": -0.927, "droplet/nuclear area B-score, replicate 3": -0.424}
{"gene": "snz (GeneID 31704)", "dsRNA": "DRSC17969", "droplet/nuclear area B-score, replicate 1": -0.238, "droplet/nuclear area B-score, replicate 2": -0.249}
{"gene": "otp (GeneID 37364)", "dsRNA": "DRSC04050", "droplet/nuclear area B-score, replicate 1": 0.215, "droplet/nuclear area B-score, replicate 2": 0.439}
{"gene": "otp (GeneID 37364)", "dsRNA": "DRSC04707", "droplet/nuclear area B-score, replicate 1": -0.459, "droplet/nuclear area B-score, replicate 2": -0.0724}
{"gene": "Fis1 (GeneID 49892)", "dsRNA": "DRSC07772", "droplet/nuclear area B-score, replicate 1": -0.213, "droplet/nuclear area B-score, replicate 2": -0.861}
{"gene": "Magi (GeneID 37403)", "dsRNA": "DRSC04247", "droplet/nuclear area B-score, replicate 1": 1.26, "droplet/nuclear area B-score, replicate 2": -1.61}
{"gene": "Magi (GeneID 37403)", "dsRNA": "DRSC04451", "droplet/nuclear area B-score, replicate 1": -1.48, "droplet/nuclear area B-score, replicate 2": 0.184}
{"gene": "puf (GeneID 42935)", "dsRNA": "DRSC15875", "droplet/nuclear area B-score, replicate 1": 5.9, "droplet/nuclear area B-score, replicate 2": 3.61}
{"gene": "puf (GeneID 42935)", "dsRNA": "DRSC23167", "droplet/nuclear area B-score, replicate 1": 0.0388, "droplet/nuclear area B-score, replicate 2": 0.85}
{"gene": "Aladin (GeneID 31881)", "dsRNA": "DRSC18121", "droplet/nuclear area B-score, replicate 1": 1.13, "droplet/nuclear area B-score, replicate 2": 0.185, "droplet/nuclear area B-score, replicate 3": 0.08}
{"gene": "alpha-Est5 (GeneID 40905)", "dsRNA": "DRSC12617", "droplet/nuclear area B-score, replicate 1": -2.73, "droplet/nuclear area B-score, replicate 2": 1.38}
{"gene": "CG13747 (GeneID 35907)", "dsRNA": "DRSC06418", "droplet/nuclear area B-score, replicate 1": -0.00267, "droplet/nuclear area B-score, replicate 2": -0.746}
{"gene": "Sox14 (GeneID 37822)", "dsRNA": "DRSC04656", "droplet/nuclear area B-score, replicate 1": 0.937, "droplet/nuclear area B-score, replicate 2": -0.707}
{"gene": "CG6908 (GeneID 41410)", "dsRNA": "DRSC16131", "droplet/nuclear area B-score, replicate 1": 0.0135, "droplet/nuclear area B-score, replicate 2": 0.0414}
{"gene": "CG3792 (GeneID 33717)", "dsRNA": "DRSC02725", "droplet/nuclear area B-score, replicate 1": -0.655, "droplet/nuclear area B-score, replicate 2": 0.285}
{"gene": "CG11413 + CG4622", "dsRNA": "DRSC04109", "droplet/nuclear area B-score, replicate 1": 1.6, "droplet/nuclear area B-score, replicate 2": 0.3}
